This passage reports binding results from publication PMC6052025.

Sequences of proteins named here, by UniProt entry; tags and fusion partners are left off.
UniProt Q0ZGT2: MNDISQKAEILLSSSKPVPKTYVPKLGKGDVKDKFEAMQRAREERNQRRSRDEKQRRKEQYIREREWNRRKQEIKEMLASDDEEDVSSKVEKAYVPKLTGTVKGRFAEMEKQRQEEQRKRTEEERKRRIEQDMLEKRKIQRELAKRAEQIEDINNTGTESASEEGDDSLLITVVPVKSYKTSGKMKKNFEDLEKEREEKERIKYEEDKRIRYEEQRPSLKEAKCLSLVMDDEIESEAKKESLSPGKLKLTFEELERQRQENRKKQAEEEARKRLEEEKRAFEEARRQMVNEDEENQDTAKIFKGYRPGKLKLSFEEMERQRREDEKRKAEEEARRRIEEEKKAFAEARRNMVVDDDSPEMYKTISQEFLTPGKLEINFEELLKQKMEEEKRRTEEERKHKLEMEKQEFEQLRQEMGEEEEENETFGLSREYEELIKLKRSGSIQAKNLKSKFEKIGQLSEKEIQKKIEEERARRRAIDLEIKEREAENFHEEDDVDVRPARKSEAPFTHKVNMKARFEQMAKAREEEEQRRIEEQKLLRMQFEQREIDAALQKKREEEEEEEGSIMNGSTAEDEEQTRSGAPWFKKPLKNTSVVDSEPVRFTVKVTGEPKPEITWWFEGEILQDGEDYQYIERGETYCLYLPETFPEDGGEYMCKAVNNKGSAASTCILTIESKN
UniProt Q16643: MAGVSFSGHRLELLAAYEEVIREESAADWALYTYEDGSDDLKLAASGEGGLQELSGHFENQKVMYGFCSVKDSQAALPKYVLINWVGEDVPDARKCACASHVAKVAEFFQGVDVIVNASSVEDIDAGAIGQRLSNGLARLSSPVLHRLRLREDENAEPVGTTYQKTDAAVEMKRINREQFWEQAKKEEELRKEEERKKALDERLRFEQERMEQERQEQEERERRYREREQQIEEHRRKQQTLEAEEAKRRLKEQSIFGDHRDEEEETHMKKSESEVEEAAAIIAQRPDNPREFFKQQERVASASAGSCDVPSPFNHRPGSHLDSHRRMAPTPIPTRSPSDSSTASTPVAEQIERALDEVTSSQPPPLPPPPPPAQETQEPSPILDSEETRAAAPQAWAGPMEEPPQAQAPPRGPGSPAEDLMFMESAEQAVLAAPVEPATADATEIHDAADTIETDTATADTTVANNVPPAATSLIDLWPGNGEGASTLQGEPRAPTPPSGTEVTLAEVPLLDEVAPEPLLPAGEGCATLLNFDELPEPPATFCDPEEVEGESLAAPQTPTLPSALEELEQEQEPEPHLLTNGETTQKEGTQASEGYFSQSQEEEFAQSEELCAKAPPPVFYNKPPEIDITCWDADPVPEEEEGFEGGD

The target in this test is T1, B-cell receptor-associated protein 31 (BAP31) (human (endogenous in HeLa)) (UniProt P51572).
T1 sequence: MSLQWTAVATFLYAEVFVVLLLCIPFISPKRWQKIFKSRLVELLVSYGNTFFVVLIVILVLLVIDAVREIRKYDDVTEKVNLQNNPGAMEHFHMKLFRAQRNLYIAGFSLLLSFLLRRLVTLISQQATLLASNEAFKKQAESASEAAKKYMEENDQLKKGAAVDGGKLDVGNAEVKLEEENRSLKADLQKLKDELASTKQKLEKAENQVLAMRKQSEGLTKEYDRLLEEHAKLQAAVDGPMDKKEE
The experiment in a line: affinity purification with mass spectrometry; co-immunoprecipitation with the anti-BAP31 monoclonal antibody FM-1; potential interacting proteins analysed by mass spectrometry.

These are yes or no findings as the source states them, for the method shown. In cells and extracts the contact can be indirect. A yes stands for co-enrichment or nearness to the bait. Other partners may have been found.

Turning to Nexilin (from UniProt Q0ZGT2 1-675), the binding result is reported as “binds”.

Regarding Drebrin (from UniProt Q16643 1-649), the binding entry was “binds”.
